Measurements reported in patent US10023532B2, “Alkyl phenyl sulfide derivative and pest control agent” (KUMIAI CHEMICAL INDUSTRY CO., LTD., priority 2012, dated 2018).
Some results were stated once for a whole list of compounds, not compound by compound.

Test system: Tetranychus urticae Koch (two spotted spider mite)
Test: Control effect test for Tetranychus urticae Koch (two spotted spider mite)
Assay type: in vivo
Conditions: active ingredient concentration 4 ppm; soybean seedlings with 35 female adults immersed; 25° C.; after 13 days; no replication
Protocol: A wettable powder prepared based on Formulation Example 2 was diluted with water into an active ingredient concentration of 4 ppm. In the solution were immersed soybean seedlings which had been inoculated with 35 female adults of two spotted spider mite. The soybean seedlings were dried in the air and placed in a thermostat of 25° C. After 13 days, the number of living female adults was examined and the control value of the active ingredient was determined using the calculation formula of the following Mathematical Expression 1. This test was conducted with no replication. Control value=100−[(number of living female adults after 13 days, in treated seedlings)/(number of living female adults after 13 days, in non-treated seedlings)]×100 [Mathematical Expression 1]
Tests similar to the above were conducted using, as comparative compounds, compound Nos. 22 and 23 described in JP-A-1975-29744, compound Nos. 3, 4, 5, 6 described in JP-A-1976-19121 and compound Nos. 18, 19 and 36 described in JP-A-1988-41451. The structures of these comparative compounds are as follows.

Compound | control value
Cc1cc(F)c(OCC2CCC(C(C)(C)C)CC2)cc1[S+]([O-])CC(F)(F)F (mixture of isomers) [A-0316] | ≥ 90
Cc1cc(F)c(OCC2CCC(C(F)(F)F)CC2)cc1[S+]([O-])CC(F)(F)F (mixture of isomers) [A-0318] | ≥ 90
Cc1cc(Cl)c(OCCCCCC[S+]([O-])C(F)F)cc1[S+]([O-])CC(F)(F)F (racemic) [A-0606] | ≥ 90
Cc1cc(F)c(OCCCCS(=O)(=O)C(F)F)cc1[S+]([O-])CC(F)(F)F (racemic) [A-0611] | ≥ 90
Cc1cc(F)c(OCCCCCS(=O)(=O)C(F)F)cc1[S+]([O-])CC(F)(F)F (racemic) [A-0616] | ≥ 90
O=S(=O)(CCCCCOc1cc([S+]([O-])CC(F)(F)F)c(Cl)cc1F)C(F)F (racemic) [A-0618] | ≥ 90
Cc1cc(F)c(OCCCCCCS(=O)(=O)C(F)F)cc1[S+]([O-])CC(F)(F)F (racemic) [A-0623] | ≥ 90
[O-][S+](CC(F)(F)F)c1cc(OCCCCSCC(F)(F)F)c(F)cc1Cl (racemic) [A-0632] | ≥ 90
Cc1cc(F)c(OCCCCCSCC(F)(F)F)cc1[S+]([O-])CC(F)(F)F (racemic) [A-0638] | ≥ 90
Cc1ccc(OCCCCCSCC(F)(F)F)cc1[S+]([O-])CC(F)(F)F (racemic) [A-0640] | ≥ 90
[O-][S+](CC(F)(F)F)c1cc(OCCCCCSCC(F)(F)F)c(Cl)cc1Cl (racemic) [A-0642] | ≥ 90
Cc1cc(F)c(OCc2ccccc2)cc1[S+]([O-])CC(F)(F)F (racemic) [A-0686] | ≥ 90
Cc1cc(F)c(OCc2ccc(C(F)(F)F)cc2)cc1[S+]([O-])CC(F)(F)F (racemic) [A-0692] | ≥ 90
[O-][S+](CC(F)(F)F)c1cc(OCc2ccc(C(F)(F)F)cc2)c(F)cc1Cl (racemic) [A-0694] | ≥ 90
N#Cc1ccc(OCc2ccc(C(F)(F)F)cc2)cc1[S+]([O-])CC(F)(F)F (racemic) [A-0698] | ≥ 90
CC(=NOCCCOc1cc([S+]([O-])CC(F)(F)F)c(C)cc1F)C(Cl)(Cl)Cl (racemic) [A-0980] | ≥ 90
CC(=NOCCCCOc1cc([S+]([O-])CC(F)(F)F)c(C)cc1F)C1CC1 (racemic) [A-0990] | ≥ 90
Cc1cc(F)c(OCCCC(=O)OC(C)(C)C)cc1[S+]([O-])CC(F)(F)F (racemic) [A-1052] | ≥ 90
Cc1cc(F)c(OCCCC#N)cc1[S+]([O-])CC(F)(F)F (racemic) [A-1088] | ≥ 90
CC(C(=O)NCCOc1cc([S+]([O-])CC(F)(F)F)c(Cl)cc1F)(C(F)(F)F)C(F)(F)F (racemic) [A-1108] | ≥ 90
Cc1cc(F)c(OCCCCNC(=O)C(C)(C)C)cc1[S+]([O-])CC(F)(F)F (racemic) [A-1113] | ≥ 90
O=C(CC(F)(F)F)NCCCCOc1cc([S+]([O-])CC(F)(F)F)c(Cl)cc1F (racemic) [A-1119] | ≥ 90
Cc1cc(F)c(OCCCCNC(=O)OC(C)(C)C)cc1[S+]([O-])CC(F)(F)F (racemic) [A-1126] | ≥ 90
Cc1cc(F)c(OCCCCNC(=O)OCC(Cl)(Cl)Cl)cc1[S+]([O-])CC(F)(F)F (racemic) [A-1128] | ≥ 90
Cc1cc(F)c(OCCCCNC(=O)NC(C)(C)C)cc1[S+]([O-])CC(F)(F)F (racemic) [A-1132] | ≥ 90
Cc1cc(F)c(OCCCCNS(C)(=O)=O)cc1[S+]([O-])CC(F)(F)F (racemic) [A-1150] | ≥ 90

Compound | control value
CS(=O)(=O)NCCCCOc1cc([S+]([O-])CC(F)(F)F)c(Cl)cc1F (racemic) [A-1152] | ≥ 90
O=S(=O)(NCCCCOc1cc([S+]([O-])CC(F)(F)F)c(Cl)cc1F)C(F)F (racemic) [A-1154] | ≥ 90
Cc1cc(F)c(OCCCCNS(=O)(=O)C(F)F)cc1[S+]([O-])CC(F)(F)F (racemic) [A-1155] | ≥ 90
CCCCCOc1cc([S+]([O-])CC(F)(F)F)c(C#N)cc1F (centres unmarked) [A-0013] | ≥ 90
CCCCCCOc1cc(SCC(F)(F)F)c(C#N)cc1F [A-0017] | ≥ 90
CCCCCCCOc1cc(SCC(F)(F)F)c(C#N)cc1F [A-0024] | ≥ 90
CC(C)CCCCOc1cc(SCC(F)(F)F)c(C#N)cc1F [A-0055] | ≥ 90
CC(C)(C)CCCOc1cc([S+]([O-])CC(F)(F)F)c(C#N)cc1F (centres unmarked) [A-0079] | ≥ 90
Cc1cc(Cl)c(OCCCCC(C)(C)C)cc1[S+]([O-])CC(F)(F)F (centres unmarked) [A-0094] | ≥ 90
Cc1cc(F)c(OCCCCC(C)(C)C)cc1[S+]([O-])CC(F)F (centres unmarked) [A-0113] | ≥ 90
Cc1cc(F)c(OCCCCC(C)(C)C)cc1SCC1CC1 [A-0115] | ≥ 90
Cc1cc(F)c(OCCCCC(C)(C)C)cc1[S+]([O-])CCC(F)(F)F (centres unmarked) [A-0116] | ≥ 90
Cc1cc(F)c(OCCCCC(C)(C)C)cc1[S+]([O-])CC1CC1 (centres unmarked) [A-0117] | ≥ 90
Cc1cc(F)c(OCCCCC(C)(C)C)cc1SCCC(F)(F)F [A-0120] | ≥ 90
CC(CCOc1cc([S+]([O-])CC(F)(F)F)c(C#N)cc1F)CC(C)(C)C (centres unmarked) [A-0126] | ≥ 90
Cc1cc(F)c(OCCCCCOCC(F)(F)F)cc1[S+]([O-])CC(F)(F)F (centres unmarked) [A-0204] | ≥ 90
Cc1cc(F)c(OCC2CCC(F)(F)CC2)cc1[S+]([O-])CC(F)(F)F (centres unmarked) [A-0320] | ≥ 90
Fc1cc(Cl)c(SCC(F)(F)F)cc1OCC1CCC(F)(F)CC1 [A-0321] | ≥ 90
[O-][S+](CC(F)(F)F)c1cc(OCC2CCC(F)(F)CC2)c(F)cc1Cl (centres unmarked) [A-0322] | ≥ 90
Cc1cc(F)c(OCCC2CCC(C(F)(F)F)CC2)cc1[S+]([O-])CC(F)(F)F (centres unmarked) [A-0326] | ≥ 90
[O-][S+](CC(F)(F)F)c1cc(OCCC2CCC(C(F)(F)F)CC2)c(F)cc1Cl (centres unmarked) [A-0327] | ≥ 90
Cc1cc(F)c(OCCC2CCC(F)(F)CC2)cc1[S+]([O-])CC(F)(F)F (centres unmarked) [A-0330] | ≥ 90
[O-][S+](CC(F)(F)F)c1cc(OCCC2CCC(F)(F)CC2)c(F)cc1Cl (centres unmarked) [A-0331] | ≥ 90
Cc1cc(F)c(OCCCC2CCC(C(F)(F)F)CC2)cc1[S+]([O-])CC(F)(F)F (centres unmarked) [A-0339] | ≥ 90
Cc1cc(F)c(OCCCC2CCC(C(C)(C)C)CC2)cc1[S+]([O-])CC(F)(F)F (centres unmarked) [A-0343] | ≥ 90
Cc1cc(F)c(OCCCCC2CCCCC2)cc1[S+]([O-])CC(F)(F)F (centres unmarked) [A-0347] | ≥ 90

Compound | control value
Cc1cc(F)c(OCCCSC(C)(C)C)cc1[S+]([O-])CC(F)(F)F (centres unmarked) [A-0352] | ≥ 90
Cc1cc(F)c(OCCCSCC(C)(C)C)cc1[S+]([O-])CC(F)(F)F (centres unmarked) [A-0353] | ≥ 90
Cc1cc(F)c(OCCCCSC(C)(C)C)cc1[S+]([O-])CC(F)(F)F (centres unmarked) [A-0356] | ≥ 90
CSCCCCCOc1cc([S+]([O-])CC(F)(F)F)c(C)cc1F (centres unmarked) [A-0359] | ≥ 90
Cc1cc(F)c(OCCCCCSC(C)(C)C)cc1SCC(F)(F)F [A-0363] | ≥ 90
CC(C)(C)SCCCCCOc1cc(SCC(F)(F)F)c(Cl)cc1F [A-0365] | ≥ 90
CSCCCCCCOc1cc([S+]([O-])CC(F)(F)F)c(C)cc1F (centres unmarked) [A-0368] | ≥ 90
[O-][S+](CCCCCOc1cc(SCC(F)(F)F)c(Cl)cc1F)C1CC1 (centres unmarked) [A-0387] | ≥ 90
[O-][S+](CC(F)(F)F)c1cc(OCCCCC[S+]([O-])C2CC2)c(F)cc1Cl (centres unmarked) [A-0388] | ≥ 90
Cc1cc(F)c(OCCCCS(C)(=O)=O)cc1SCC(F)(F)F [A-0391] | ≥ 90
Cc1cc(F)c(OCCCCS(C)(=O)=O)cc1[S+]([O-])CC(F)(F)F (centres unmarked) [A-0392] | ≥ 90
Cc1cc(F)c(OCCCCCS(C)(=O)=O)cc1SCC(F)(F)F [A-0393] | ≥ 90
Cc1cc(F)c(OCCCCCS(C)(=O)=O)cc1[S+]([O-])CC(F)(F)F (centres unmarked) [A-0394] | ≥ 90
Cc1cc(F)c(OCCCCCS(=O)(=O)C(C)(C)C)cc1[S+]([O-])CC(F)(F)F (centres unmarked) [A-0396] | ≥ 90
Cc1cc(Cl)c(OCCCCCSC(F)(F)F)cc1[S+]([O-])CC(F)(F)F (centres unmarked) [A-0441] | ≥ 90
Cc1cc(C)c([S+]([O-])CC(F)(F)F)cc1OCCCCCSC(F)(F)F (centres unmarked) [A-0443] | ≥ 90
FC(F)(F)CSc1cc(OCCCCCSC(F)(F)F)c(Cl)cc1Cl [A-0444] | ≥ 90
[O-][S+](CC(F)(F)F)c1cc(OCCCCCSC(F)(F)F)c(Cl)cc1Cl (centres unmarked) [A-0445] | ≥ 90
COc1cc(F)c(OCCCCCSC(F)(F)F)cc1[S+]([O-])CC(F)(F)F (centres unmarked) [A-0449] | ≥ 90
Cc1cc(F)c(OCCCCCCSC(F)(F)F)cc1[S+]([O-])CC(F)(F)F (centres unmarked) [A-0471] | ≥ 90
[O-][S+](CC(F)(F)F)c1cc(OCCCCCCCSC(F)(F)F)c(Cl)cc1Cl (centres unmarked) [A-0510] | ≥ 90
Fc1cc(Cl)c(SCC(F)(F)F)cc1OCCCCCSC(F)F [A-0555] | ≥ 90
Cc1ccc(OCCCCCSC(F)F)cc1[S+]([O-])CC(F)(F)F (centres unmarked) [A-0558] | ≥ 90
[O-][S+](CC(F)(F)F)c1cc(OCCCCCSC(F)F)ccc1Cl (centres unmarked) [A-0559] | ≥ 90
[O-][S+](CC(F)(F)F)c1cc(OCCCCCSC(F)F)c(Cl)cc1Cl (centres unmarked) [A-0560] | ≥ 90
